Measurements: PubChem BioAssay AID1688 (National Center for Advancing Translational Sciences (NCATS), 2009)
In all, about 220,000 compounds went through this assay and about 2,400 (1.1%) were called active. Inconclusive results, whose numbers are uncertain, are shown with a selection of clear calls. Calls come from the whole dose curve; as a rule, active = well fitted inhibition curve with a large enough effect; inconclusive = small, poorly fitted or top-dose-only effect, or effect the other way; inactive = no such curve, though single readings can be large or run the other way. Potencies of inconclusive entries are doubtful fits and often do not repeat.
% is set by controls: 0 for no effect and ±100 for the full control effect; potency is the fitted concentration of half-maximal effect.

Assay: qHTS Multiplex Assay to Identify Dual Action Probes in a Cell Model of Huntington: Aggregate Formation (GFP); note: nearly all actives have a fitted effect of over 60% in size
Conditions: PC12 HttQ103-GFP aggregates, Acumen cytometry, 40 h; activity change, negative = inhibition: at 46.1 µM (top of the series) unless noted
Procedure, shortened: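 Inducible Q103 Huntingtin exon 1–GFP PC12 line, 1500 cells/well in phenol red free DMEM with 5% equine and 5% calf serum. Tebufenozide 100 nM induced expression; compounds titrated; aggregates quantified by cytometry.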
In the case of `O=C1C2C(c3ccccc3)CC=CC2[C@H](c2ccc3ccccc3c2)N1Cc1ccccc1` (some centres undefined), the Potency is reported as inconclusive: 7.08 µM [inhibitor, partial curve, poor fit].
With `Cc1ccccc1C(=O)NC(NC(=S)Nc1ccc(S(N)(=O)=O)cc1)C(Cl)(Cl)Cl` (centres undefined) the Potency was inconclusive: 14.1 µM [activator, single point].
For `CCOC(=O)c1c(-c2cccc([N+](=O)[O-])c2)csc1N`, the Potency was “inactive”.
With `O=C(NC(NNc1ccc([N+](=O)[O-])cc1)(C(F)(F)F)C(F)(F)F)c1ccc(Cl)cc1` the Potency was inconclusive: 22.4 µM [inhibitor, single point].
For `COCn1c(-c2ccc(OC)cc2)nc2ccccc21`, the Potency was “inactive”.
With `Oc1c(Br)cc(C=Nc2ccc3nc(-c4ccccc4)[nH]c3c2)c(O)c1Br` the Potency was “inactive”.
With `C=C(C)C(=O)O[C@H]1C/C(C)=C\C(=O)/C=C(\C)[C@H](O)[C@@H]2OC(=O)C(=C)[C@@H]21` the Potency was inconclusive: 3.55 µM [inhibitor, single point].
In the case of `CCOC(=O)CN1C(=O)C(O)(CC(=O)c2cccc(OC)c2)c2ccccc21` (centres undefined), the Potency is reported as “inactive”.
With `c1ccc(-c2nc(CSc3n[nH]c(-c4cccs4)n3)cs2)cc1` the Potency was inconclusive: 35.5 µM [inhibitor, single point].
For `COC1=C(C)C(O)=C(C(=O)/C=C/c2ccccc2)C(=O)C1(C)C`, the Potency was inconclusive: 5.62 µM [activator, single point].
For `CCC(C)NC(=O)CNC(=S)N(Cc1ccccc1F)C1CCCCC1` (centres undefined), the Potency was “inactive”.
In the case of `COc1ccc(OC)c(NC(=O)CSc2nnnn2-c2ccccc2F)c1`, the Potency is reported as “inactive”.
In the case of `N#Cc1c(NC(=O)CSc2ncc(-c3ccccc3)n2CC2CCCO2)sc2c1CCCC2` (centres undefined), the Potency is reported as “inactive”.
For `C[N+]1(CC(=O)OC2CCCCCCCCCCC2)CCCC1`, the Potency was inconclusive: 10 µM [inhibitor, partial curve].
For `COc1ccc(-n2nnnc2SCC(=O)NNC(=O)c2ccc([N+](=O)[O-])cc2)cc1`, the Potency was inconclusive: 3.55 µM [inhibitor, single point].
In the case of `COCCN1C(=O)/C(=C/c2ccc(Oc3ccc([N+](=O)[O-])cn3)c(OC)c2)SC1=Nc1ccccc1`, the Potency is reported as “inactive”.
For `O=C(NCc1nc(-c2ccc(C(F)(F)F)cc2)no1)Nc1ccc(F)cc1F`, the activity change, negative = inhibition was inactive: 24.9% [at 9.22 µM].
With `Cc1cc(C)nc(NS(=O)(=O)c2ccc(Br)s2)c1` the Potency was inconclusive: 35.5 µM [inhibitor, single point].
For `COc1ccc(CN(C(=O)c2ccc(-c3ccccc3)[nH]2)C(C(=O)NCC2CCCO2)c2ccc(C)o2)cc1` (centres undefined), the Potency was inconclusive: 25.1 µM [inhibitor, single point].
For `Cc1ccc(/C=[N+](/[O-])C2SC(=S)N(C)C2(C)C)cc1` (centres undefined), the Potency was “inactive”.
With `O=C(N/N=C/c1c(O)ccc2ccccc12)c1cccc(C(F)(F)F)c1` the Potency was active: 3.98 µM.
In the case of `Cc1ccccc1C(=O)Nc1ccc(Cl)cn1`, the Potency is reported as inconclusive: 6.31 µM [activator, single point].
With `COC(=O)CC(c1ccc(F)cc1)n1c(C)ccc1C` (centres undefined) the Potency was inconclusive: 15.8 µM [activator, single point].
In the case of `COc1ccc(/C=N/NC(=O)c2nc(-c3ccccc3)cc(-c3ccccc3)n2)cc1`, the Potency is reported as inconclusive: 3.16 µM [activator, single point].
For `O=C(NCc1ccco1)c1ccc2c(c1)C(=O)N(Cc1ccccc1)C2=O`, the Potency was inconclusive: 4.47 µM [activator, partial curve].
With `CCCCNc1ccc(S(N)(=O)=O)cc1[N+](=O)[O-]` the Potency was “inactive”.
In the case of `Nc1nonc1-c1nc2ccccc2n1Cc1ccc(F)cc1Cl`, the Potency is reported as inconclusive: 2.24 µM [activator, partial curve, poor fit].
For `CCOC(=O)Cc1csc(NC(=O)COc2c(C)cccc2C)n1`, the Potency was inconclusive: 35.5 µM [activator, partial curve].
With `CC1=CC(C)(C)Nc2ccc(OC(=O)C(Cc3ccccc3)N3C(=O)c4ccccc4C3=O)cc21` (centres undefined) the Potency was inconclusive: 31.6 µM [inhibitor, single point].
In the case of `CCNc1nc(N)nc(Oc2ccc(OCCOc3ccccc3)nn2)n1`, the Potency is reported as “inactive”.
In the case of `Cc1nc2c(ccc3nc(NC(=O)Cc4ccccc4)sc32)s1`, the Potency is reported as inconclusive: 35.5 µM [inhibitor, single point].
For `COc1cc(-c2nnc(CSc3nnc(Nc4ccc(C(C)C)cc4)s3)o2)cc(OC)c1OC`, the Potency was inconclusive: 11.2 µM [inhibitor, single point].
In the case of `Cc1cc(C(=O)N/N=C/c2cc(N=Nc3ccccc3)ccc2O)n[nH]1`, the Potency is reported as inconclusive: 2.82 µM [inhibitor, full curve].
In the case of `Cc1ccc2nc(NC(=O)c3ccccn3)sc2c1`, the Potency is reported as inconclusive: 3.55 µM [inhibitor, full curve].
In the case of `Cc1ccccc1C(=O)N1CCc2ccccc2C1`, the Potency is reported as inconclusive: 6.31 µM [activator, partial curve].
For `O=C(N/N=C/C=C\c1ccco1)c1cccnc1`, the Potency was inconclusive: 22.4 µM [activator, single point].
For `O=C(c1ccccc1)c1cncc(Br)c1`, the Potency was inconclusive: 35.5 µM [inhibitor, partial curve, poor fit].
In the case of `N#CC1=C(N)Oc2ccccc2C12C(=O)Nc1n[nH]c(-c3ccccc3)c12` (centres undefined), the Potency is reported as inconclusive: 4.47 µM [inhibitor, partial curve].
In the case of `CC(C)Cn1c(N)c(C(=O)COC(=O)CC23CC4CC(CC(C4)C2)C3)c(=O)n(C)c1=O`, the Potency is reported as active: 7.08 µM.
With `Brc1cc(Br)c2nc(-c3cccs3)ccc2c1` the Potency was “inactive”.
For `COc1cc(CNCCN(C)C)c(Br)cc1OCC(=O)NCc1ccccc1`, the Potency was inconclusive: 31.6 µM [activator, single point].
In the case of `CN(C)c1nccc(Nc2ccccc2)c1C#N`, the Potency is reported as inconclusive: 11.2 µM [inhibitor, partial curve].
In the case of `COc1ccccc1-c1nnc2sc(COc3ccc(F)cc3)nn12`, the Potency is reported as inconclusive: 1.78 µM [inhibitor, full curve].
In the case of `Cn1nc(CC(=O)Nc2ccc3c(c2)OCCO3)c2ccccc2c1=O`, the Potency is reported as inconclusive: 3.98 µM [inhibitor, partial curve].
